{"source": "patent US11980616B2", "about": "“Treating liver disease by selectively eliminating senescent cells” (Buck Institute for Research on Aging, priority 2014, dated 2024)", "tested_on": "p16-3MR mice fed a high fat diet", "test": "Glucose tolerance and insulin sensitivity in p16-3MR mice fed a high fat diet", "assay_type": "in vivo, mouse", "experimental": "Groups of p16-3MR mice (n=9) were fed a high fat diet for four months mice or a regular chow diet. Animals were then treated with ganciclovir (3 rounds of 25 mg/kg ganciclovir administered daily for five consecutive days) or vehicle. A glucose bolus was given at time zero, and blood glucose was monitored at 20, 30, 60, and 120 minutes after delivering glucose to determine glucose disposal (see FIG. 69A). […] Insulin sensitivity was also determined (Insulin Tolerance Testing (ITT)). […] Changes in weight, body composition, and food intake were also monitored."}
{"smiles": "Nc1nc(O)c2ncn(COC(CO)CO)c2n1", "note": "[ganciclovir]", "values": [{"measurement": "Body composition (percent of fat)", "setting": "p16-3MR mice, high fat diet", "result": "did not alter"}, {"measurement": "Body weight", "setting": "p16-3MR mice, high fat diet", "result": "did not alter"}, {"measurement": "Food intake (grams per week)", "setting": "p16-3MR mice, high fat diet", "result": "did not alter"}, {"measurement": "Change in insulin tolerance testing", "setting": "wild-type mice", "result": "not observed"}]}
